The text below walks through data of the supplement of paper PMC12819154, “High-throughput peptide-centric local stability assay extends protein–ligand identification to membrane proteins, tissues and bacteria” (Nature Structural & Molecular Biology, 2025).

Sequences of proteins named here, by UniProt entry; tags and fusion partners are left off. A change or cut given only in a name is not applied to a line headed by its entry.
UniProt Q96IK5: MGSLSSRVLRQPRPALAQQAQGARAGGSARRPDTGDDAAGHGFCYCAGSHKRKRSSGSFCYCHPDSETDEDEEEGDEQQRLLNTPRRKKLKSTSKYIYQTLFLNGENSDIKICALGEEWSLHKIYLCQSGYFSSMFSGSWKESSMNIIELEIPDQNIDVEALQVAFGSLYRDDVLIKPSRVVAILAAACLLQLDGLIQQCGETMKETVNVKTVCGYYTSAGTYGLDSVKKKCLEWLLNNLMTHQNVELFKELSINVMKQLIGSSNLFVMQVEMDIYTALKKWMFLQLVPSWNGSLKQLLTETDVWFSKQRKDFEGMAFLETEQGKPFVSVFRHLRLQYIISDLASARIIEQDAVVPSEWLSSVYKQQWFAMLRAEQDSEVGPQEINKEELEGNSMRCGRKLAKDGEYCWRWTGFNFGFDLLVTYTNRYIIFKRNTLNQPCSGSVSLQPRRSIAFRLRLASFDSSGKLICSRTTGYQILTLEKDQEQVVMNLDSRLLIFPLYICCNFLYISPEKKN
UniProt Q96KQ7: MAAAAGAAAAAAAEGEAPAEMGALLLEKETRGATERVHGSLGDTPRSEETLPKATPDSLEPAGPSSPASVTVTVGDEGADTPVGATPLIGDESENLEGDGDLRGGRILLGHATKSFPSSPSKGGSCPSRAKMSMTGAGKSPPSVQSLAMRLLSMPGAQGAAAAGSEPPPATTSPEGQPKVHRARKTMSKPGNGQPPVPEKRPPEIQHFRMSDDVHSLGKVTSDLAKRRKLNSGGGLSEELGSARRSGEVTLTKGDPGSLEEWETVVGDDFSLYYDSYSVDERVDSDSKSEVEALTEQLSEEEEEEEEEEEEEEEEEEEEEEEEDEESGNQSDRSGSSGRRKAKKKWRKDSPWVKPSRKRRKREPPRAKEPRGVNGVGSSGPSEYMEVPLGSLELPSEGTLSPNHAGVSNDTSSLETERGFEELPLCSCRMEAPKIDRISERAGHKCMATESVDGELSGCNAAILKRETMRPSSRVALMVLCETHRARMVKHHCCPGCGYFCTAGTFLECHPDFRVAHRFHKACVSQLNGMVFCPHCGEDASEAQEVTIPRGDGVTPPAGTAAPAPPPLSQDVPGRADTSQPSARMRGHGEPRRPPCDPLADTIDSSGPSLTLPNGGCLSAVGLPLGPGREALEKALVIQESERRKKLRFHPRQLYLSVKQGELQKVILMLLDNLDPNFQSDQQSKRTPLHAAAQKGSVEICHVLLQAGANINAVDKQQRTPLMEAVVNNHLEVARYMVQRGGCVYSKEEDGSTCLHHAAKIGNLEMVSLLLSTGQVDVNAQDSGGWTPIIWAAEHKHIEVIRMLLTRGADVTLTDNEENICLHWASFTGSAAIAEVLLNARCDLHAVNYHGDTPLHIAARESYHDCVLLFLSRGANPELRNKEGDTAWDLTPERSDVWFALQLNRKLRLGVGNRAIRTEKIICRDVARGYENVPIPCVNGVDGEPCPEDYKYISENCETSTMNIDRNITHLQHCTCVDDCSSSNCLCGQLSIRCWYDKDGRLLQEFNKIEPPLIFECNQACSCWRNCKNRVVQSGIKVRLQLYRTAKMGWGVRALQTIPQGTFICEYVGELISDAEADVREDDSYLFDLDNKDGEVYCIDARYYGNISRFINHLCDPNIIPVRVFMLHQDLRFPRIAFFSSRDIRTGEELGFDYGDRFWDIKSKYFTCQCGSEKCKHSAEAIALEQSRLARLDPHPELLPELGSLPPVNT
UniProt Q96I24: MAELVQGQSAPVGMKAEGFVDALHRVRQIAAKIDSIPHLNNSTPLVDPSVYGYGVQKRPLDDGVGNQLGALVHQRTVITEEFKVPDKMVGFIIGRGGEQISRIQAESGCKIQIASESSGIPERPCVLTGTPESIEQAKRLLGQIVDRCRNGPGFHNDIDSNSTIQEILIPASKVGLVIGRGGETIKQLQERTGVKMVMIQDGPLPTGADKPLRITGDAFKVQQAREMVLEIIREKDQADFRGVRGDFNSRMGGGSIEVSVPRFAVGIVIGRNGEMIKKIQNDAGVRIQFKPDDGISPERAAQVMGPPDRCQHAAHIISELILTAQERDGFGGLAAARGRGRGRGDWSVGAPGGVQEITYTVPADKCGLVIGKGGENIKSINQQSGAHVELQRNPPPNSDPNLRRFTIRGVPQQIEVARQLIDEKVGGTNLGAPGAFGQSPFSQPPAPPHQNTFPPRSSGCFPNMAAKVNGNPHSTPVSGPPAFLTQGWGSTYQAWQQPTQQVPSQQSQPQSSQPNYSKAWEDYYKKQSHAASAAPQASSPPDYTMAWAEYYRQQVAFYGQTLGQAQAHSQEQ
UniProt Q96MK2: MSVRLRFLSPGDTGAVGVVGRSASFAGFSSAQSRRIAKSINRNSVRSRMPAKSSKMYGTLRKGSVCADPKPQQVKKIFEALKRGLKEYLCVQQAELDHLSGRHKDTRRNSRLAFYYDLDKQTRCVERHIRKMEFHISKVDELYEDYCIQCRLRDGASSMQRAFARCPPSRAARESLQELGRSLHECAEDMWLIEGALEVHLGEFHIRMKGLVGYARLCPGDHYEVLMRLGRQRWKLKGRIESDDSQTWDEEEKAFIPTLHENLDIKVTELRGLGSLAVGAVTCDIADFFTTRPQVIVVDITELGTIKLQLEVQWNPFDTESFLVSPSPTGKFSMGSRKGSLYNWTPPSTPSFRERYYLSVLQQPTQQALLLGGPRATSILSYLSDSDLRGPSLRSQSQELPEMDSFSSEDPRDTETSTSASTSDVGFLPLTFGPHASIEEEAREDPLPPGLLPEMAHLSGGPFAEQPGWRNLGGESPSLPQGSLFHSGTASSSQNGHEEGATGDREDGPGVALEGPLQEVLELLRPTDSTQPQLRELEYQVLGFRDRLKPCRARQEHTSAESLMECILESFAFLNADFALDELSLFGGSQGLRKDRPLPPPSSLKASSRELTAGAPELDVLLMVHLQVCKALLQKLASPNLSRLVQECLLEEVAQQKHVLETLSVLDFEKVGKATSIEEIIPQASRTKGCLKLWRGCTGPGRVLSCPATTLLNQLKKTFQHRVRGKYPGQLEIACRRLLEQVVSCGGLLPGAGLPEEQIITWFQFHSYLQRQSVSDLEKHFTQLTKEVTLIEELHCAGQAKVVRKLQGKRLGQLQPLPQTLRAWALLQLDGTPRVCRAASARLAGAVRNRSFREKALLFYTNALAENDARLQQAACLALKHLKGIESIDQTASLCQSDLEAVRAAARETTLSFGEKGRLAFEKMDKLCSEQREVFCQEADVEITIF
UniProt Q96P71: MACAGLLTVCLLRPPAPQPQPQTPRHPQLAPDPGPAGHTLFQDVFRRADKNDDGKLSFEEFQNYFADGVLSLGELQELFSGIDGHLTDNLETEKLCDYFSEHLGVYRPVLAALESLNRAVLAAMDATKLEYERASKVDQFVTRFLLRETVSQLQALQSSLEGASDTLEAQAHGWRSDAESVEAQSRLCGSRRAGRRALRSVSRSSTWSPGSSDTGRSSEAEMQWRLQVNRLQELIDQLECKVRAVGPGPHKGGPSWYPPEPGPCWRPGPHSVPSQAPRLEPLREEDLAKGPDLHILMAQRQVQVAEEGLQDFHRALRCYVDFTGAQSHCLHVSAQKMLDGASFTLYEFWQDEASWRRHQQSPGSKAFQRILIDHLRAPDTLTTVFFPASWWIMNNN
UniProt Q96GK7: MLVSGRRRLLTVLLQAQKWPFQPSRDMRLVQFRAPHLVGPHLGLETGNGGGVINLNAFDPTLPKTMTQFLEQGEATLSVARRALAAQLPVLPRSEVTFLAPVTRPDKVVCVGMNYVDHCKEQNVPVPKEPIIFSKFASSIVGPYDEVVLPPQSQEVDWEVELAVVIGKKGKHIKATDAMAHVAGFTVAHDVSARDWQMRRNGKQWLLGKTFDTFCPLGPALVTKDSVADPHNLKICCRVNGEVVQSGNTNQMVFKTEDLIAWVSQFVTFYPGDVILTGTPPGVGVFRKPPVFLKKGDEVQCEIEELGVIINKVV
UniProt Q96PK6: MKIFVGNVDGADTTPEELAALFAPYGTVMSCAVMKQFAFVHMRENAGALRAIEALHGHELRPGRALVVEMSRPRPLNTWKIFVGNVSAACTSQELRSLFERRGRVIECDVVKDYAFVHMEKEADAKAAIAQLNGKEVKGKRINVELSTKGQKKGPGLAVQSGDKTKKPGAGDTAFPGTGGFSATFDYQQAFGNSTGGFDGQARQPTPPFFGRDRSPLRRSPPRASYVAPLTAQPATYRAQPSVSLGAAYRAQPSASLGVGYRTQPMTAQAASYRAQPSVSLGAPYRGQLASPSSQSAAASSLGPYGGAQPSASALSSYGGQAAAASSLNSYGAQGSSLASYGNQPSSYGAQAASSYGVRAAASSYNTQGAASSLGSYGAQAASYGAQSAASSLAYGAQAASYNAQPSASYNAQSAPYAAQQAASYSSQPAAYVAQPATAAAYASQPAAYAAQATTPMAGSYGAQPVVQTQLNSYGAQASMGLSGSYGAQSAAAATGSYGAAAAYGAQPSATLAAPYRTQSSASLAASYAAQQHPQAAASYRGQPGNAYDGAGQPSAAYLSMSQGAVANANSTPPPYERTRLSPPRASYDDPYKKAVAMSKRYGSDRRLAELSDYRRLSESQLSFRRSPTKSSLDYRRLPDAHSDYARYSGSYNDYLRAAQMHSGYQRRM
UniProt Q96I23: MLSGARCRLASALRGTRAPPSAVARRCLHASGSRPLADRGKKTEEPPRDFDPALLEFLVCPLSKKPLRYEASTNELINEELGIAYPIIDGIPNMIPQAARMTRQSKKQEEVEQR
UniProt Q96HR3: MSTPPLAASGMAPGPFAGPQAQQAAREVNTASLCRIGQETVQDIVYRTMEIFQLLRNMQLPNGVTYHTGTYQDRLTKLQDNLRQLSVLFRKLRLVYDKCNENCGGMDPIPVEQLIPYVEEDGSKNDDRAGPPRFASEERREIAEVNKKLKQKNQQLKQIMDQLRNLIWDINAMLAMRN
UniProt Q96HJ9: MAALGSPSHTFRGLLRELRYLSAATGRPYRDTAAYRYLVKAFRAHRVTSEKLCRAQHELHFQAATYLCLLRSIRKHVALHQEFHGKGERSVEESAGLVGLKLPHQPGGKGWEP
UniProt Q96FB5: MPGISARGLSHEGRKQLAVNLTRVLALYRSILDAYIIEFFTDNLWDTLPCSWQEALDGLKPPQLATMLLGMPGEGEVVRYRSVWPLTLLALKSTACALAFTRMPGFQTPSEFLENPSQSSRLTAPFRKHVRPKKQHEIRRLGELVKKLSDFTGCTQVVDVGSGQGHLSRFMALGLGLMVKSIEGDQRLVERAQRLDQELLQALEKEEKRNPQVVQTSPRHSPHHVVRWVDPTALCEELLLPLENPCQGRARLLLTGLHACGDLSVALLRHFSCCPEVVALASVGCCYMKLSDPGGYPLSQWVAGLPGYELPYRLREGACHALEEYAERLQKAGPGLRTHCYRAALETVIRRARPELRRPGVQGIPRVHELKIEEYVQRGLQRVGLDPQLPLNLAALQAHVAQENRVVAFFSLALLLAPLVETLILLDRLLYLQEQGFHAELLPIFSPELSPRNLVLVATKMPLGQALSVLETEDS
UniProt Q96G25: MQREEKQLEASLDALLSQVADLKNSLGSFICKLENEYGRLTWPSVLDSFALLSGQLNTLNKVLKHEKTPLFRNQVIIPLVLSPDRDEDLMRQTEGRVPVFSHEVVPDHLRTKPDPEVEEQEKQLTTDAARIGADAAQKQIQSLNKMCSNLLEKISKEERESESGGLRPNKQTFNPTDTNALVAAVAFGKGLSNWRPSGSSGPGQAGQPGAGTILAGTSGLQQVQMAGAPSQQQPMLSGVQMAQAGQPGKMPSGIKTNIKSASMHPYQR
UniProt Q96HZ4: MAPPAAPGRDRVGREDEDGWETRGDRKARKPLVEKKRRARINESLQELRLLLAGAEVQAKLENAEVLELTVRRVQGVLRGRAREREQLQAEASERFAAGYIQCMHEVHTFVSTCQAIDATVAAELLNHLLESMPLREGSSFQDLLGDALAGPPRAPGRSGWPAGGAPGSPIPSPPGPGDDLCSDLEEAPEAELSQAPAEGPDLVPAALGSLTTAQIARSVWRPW
UniProt Q96RE9: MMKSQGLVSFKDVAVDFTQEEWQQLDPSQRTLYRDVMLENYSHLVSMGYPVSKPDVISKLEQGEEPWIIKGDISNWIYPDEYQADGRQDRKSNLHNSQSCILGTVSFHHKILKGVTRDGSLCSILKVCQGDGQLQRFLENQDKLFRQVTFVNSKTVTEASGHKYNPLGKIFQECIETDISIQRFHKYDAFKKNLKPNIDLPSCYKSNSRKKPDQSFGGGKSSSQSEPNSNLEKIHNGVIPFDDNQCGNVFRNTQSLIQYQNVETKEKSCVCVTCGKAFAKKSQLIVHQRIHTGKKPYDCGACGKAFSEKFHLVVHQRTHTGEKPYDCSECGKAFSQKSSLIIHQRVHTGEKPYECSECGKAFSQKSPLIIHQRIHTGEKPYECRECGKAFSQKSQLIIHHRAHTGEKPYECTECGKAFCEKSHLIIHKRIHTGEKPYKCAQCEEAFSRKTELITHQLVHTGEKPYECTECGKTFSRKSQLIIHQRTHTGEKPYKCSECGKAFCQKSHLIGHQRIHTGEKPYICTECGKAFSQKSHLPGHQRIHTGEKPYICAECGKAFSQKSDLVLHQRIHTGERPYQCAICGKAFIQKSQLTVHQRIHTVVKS

Some of the results follow. Most entries show no effect beyond the scatter of the controls.

Compound in this experiment: Cc1nc(Nc2ncc(C(=O)Nc3c(C)cccc3Cl)s2)cc(N2CCN(CCO)CC2)n1 [dasatinib]
Description: log2 fold change of tryptic peptide abundance, ligand vs vehicle (limited proteolysis) (log2 ratio); higher = more trypsin-susceptible (destabilized). Conditions: ligand concentration: 5 uM; sample: K562 cleared lysate.
As for “UniProt Q96IK5 (peptide sequence: PALAQQAQGAR, peptide start residue: 14)”, the log2 fold change amounted to 0.0996. In the case of “C9orf72 (peptide sequence: FFVLSEK, peptide start residue: 84) (UniProt Q96LT7)”, the log2 fold change was -0.0856. As for “UniProt Q96K17 (peptide sequence: LAEQFPR, peptide start residue: 116)”, the figure is -0.0467; as for “EHMT2 (peptide sequence: RTPLHAAAQK, peptide start residue: 686) (UniProt Q96KQ7)”, 0.471; as for “FUBP3 (peptide sequence: AEGFVDALHR, peptide start residue: 16) (UniProt Q96I24)”, -0.161. Turning to “UniProt Q96MK2 (peptide sequence: VLSCPATTLLNQLKK, peptide start residue: 703)”, the log2 fold change was -0.752. Regarding “USP47 (peptide sequence: VMFDALEQK, peptide start residue: 279) (UniProt Q96K76)”, the log2 fold change was -0.45. “UniProt Q96P71 (peptide sequence: SSTWSPGSSDTGR, peptide start residue: 204)”: the log2 fold change was -0.476. The value for “UniProt Q96NA8 (peptide sequence: QGCQPLECAR, peptide start residue: 24)” was 0.998; that for “PASK (peptide sequence: HGSGLDLFAFIDRHPR, peptide start residue: 1084) (UniProt Q96RG2)” was -0.32.

Regarding “FAHD2A (peptide sequence: RALAAQLPVLPR, peptide start residue: 82) (UniProt Q96GK7)”, the log2 fold change was -0.11. As for “RBM14 (peptide sequence: AQPSVSLGAPYR, peptide start residue: 275) (UniProt Q96PK6)”, the figure is -0.137; as for “TRIM47 (peptide sequence: GHELVPLEQER, peptide start residue: 211) (UniProt Q96LD4)”, -0.593.

“EAF1 (peptide sequence: PPVGPKTSPLK, peptide start residue: 151) (UniProt Q96JC9)”: the log2 fold change is -0.153.

As for “GMPPA (peptide sequence: LLPAITILGCRVR, peptide start residue: 380) (UniProt Q96IJ6)”, the log2 fold change is -0.212. As for “PYURF (peptide sequence: KQEEVEQR, peptide start residue: 107) (UniProt Q96I23)”, the log2 fold change was -0.016. For the target “MED30 (peptide sequence: EIAEVNKK, peptide start residue: 141) (UniProt Q96HR3)”, the log2 fold change was found to be 0.0376. As for “FMC1 (peptide sequence: HVALHQEFHGK, peptide start residue: 76) (UniProt Q96HJ9)”, the figure is -0.726. As for “UBXN10 (peptide sequence: HFRPTDDLQTIVAVAEQK, peptide start residue: 214) (UniProt Q96LJ8)”, the figure is 0.387. As for “SCYL1 (peptide sequence: EKWSADMWR, peptide start residue: 199) (UniProt Q96KG9)”, the figure is 0.112.

In the case of “UniProt Q96FB5 (peptide sequence: KLSDFTGCTQVVDVGSGQGHLSR, peptide start residue: 147)”, the log2 fold change is -0.159. Turning to “XPO6 (peptide sequence: MDRDLPSFTQNVHR, peptide start residue: 1090) (UniProt Q96QU8)”, the log2 fold change was determined as 0.32. The value for “MED8 (peptide sequence: TKPDPEVEEQEK, peptide start residue: 111) (UniProt Q96G25)” was 0.194; that for “INPP4A (peptide sequence: LNSYFEQFK, peptide start residue: 830) (UniProt Q96PE3)” was -0.411; that for “UniProt Q96HZ4 (peptide sequence: VGREDEDGWETR, peptide start residue: 12)” was 0.531. In the case of “UniProt Q96RE9 (peptide sequence: SPLIIHQR, peptide start residue: 366)”, the log2 fold change is -0.0572.

On to “AJUBA (peptide sequence: LEPTAPALSPR, peptide start residue: 111) (UniProt Q96IF1)”, for which the log2 fold change came out at 0.462.

Take “OTUD5 (peptide sequence: ESYLQWLR, peptide start residue: 405) (UniProt Q96G74)”: the log2 fold change stood at 0.0865. “LENG8 (peptide sequence: LTCAPDPSTVRPVAVLKK, peptide start residue: 564) (UniProt Q96PV6)”: the log2 fold change is -0.261.
